Some results were stated once for a whole list of compounds, not compound by compound.
Columns and labels:
[1] = tested on: green peach aphid (Myzus persicae); conditions: 200 ppm, radish leaf dipping, nymphs, 25° C., fifth day after the treatment
[2] = tested on: sweetpotato whitefly (Bemisia tabaci); assay: Test on effect against sweetpotato whitefly (cucumber seedling spray); format: in vivo; conditions: 200 ppm, sprayed on cucumber seedling, first- to second-instar nymphs, 25° C., seventh day after the treatment
[3] = tested on: brown planthopper (Nilaparvata lugens); conditions: 200 ppm, rice seedling dipping, second- to third-instar nymphs, 25° C., fifth day after the treatment

CCN(C(=O)c1ccc(C(F)(F)F)nc1)c1ccncc1C(=O)OC [I-11, Methyl 4-(N-ethyl-6-(trifluoromethyl)nicotinamide)nicotinate]
≥ 90%: mortality [1] | control value [2] | mortality [3]

Source: US20210115015A1, “N-(4-PYRIDYL)NICOTINAMIDE COMPOUND OR SALT THEREOF” (ISHIHARA SANGYO KAISHA, LTD., priority 2017, published 2021)
